## Percent effect of library compounds

Amino acid sequences for entries named in this document (tags omitted). Residues count along the entry.
UniProt A4I591, 1-473: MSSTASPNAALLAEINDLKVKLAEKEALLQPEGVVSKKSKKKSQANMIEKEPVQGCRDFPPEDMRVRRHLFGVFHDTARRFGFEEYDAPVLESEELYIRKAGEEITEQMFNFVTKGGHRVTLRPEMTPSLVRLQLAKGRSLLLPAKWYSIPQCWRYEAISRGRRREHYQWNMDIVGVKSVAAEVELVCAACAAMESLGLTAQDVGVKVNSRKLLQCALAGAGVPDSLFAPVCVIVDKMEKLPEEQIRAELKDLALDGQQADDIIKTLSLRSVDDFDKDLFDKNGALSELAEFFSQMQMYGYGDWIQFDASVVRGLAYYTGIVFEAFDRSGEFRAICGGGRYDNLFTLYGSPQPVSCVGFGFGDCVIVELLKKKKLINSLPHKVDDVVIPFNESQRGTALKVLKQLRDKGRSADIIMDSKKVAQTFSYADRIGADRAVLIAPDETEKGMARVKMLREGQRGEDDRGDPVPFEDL

From ChEMBL document CHEMBL3988442, “University of Dundee, Small-Polar-MMV Screening Library” (2021).

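Enzyme assay of histidyl-tRNA synthetase; the read-out is not stated. Target: Histidine-tRNA ligase, Leishmania infantum (UniProt A4I591). Tested at 30 µM. Higher reads as stronger inhibition (inferred: compounds with an IC50 in retests scored well above the rest). The assay is labelled LdHisRS but filed under L. infantum. Of about 69,000 compounds tested this way, about 410 (0.6%) reached 50% or more in at least one test.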

Results are given as percent effect. The record does not define 0% and 100%; most values in the screen are far below 50% and negative numbers occur (in some assays of this library far below -100). Compounds were drawn at random from those tested, without regard to their results.

SMILES	effect
CN(CCc1ccccc1)Cc1cc(C(=O)N2CCCC2(C)C)no1	9.524
CCOc1ccc(C(=O)NS(=O)(=O)c2cncc(Br)c2)cc1OC	19.23
CCN1CCN(S(=O)(=O)c2ccc(Cc3cc(C)n[nH]c3=O)cc2)CC1	10.39
CCS(=O)(=O)NCc1nc(C)cc(N2CCCCC2)n1	9.333
Cc1cc(OC(F)F)c(C(=O)N2CC[C@H](O)C2)s1	9.89
CCNC(=O)[C@@H]1C[C@H](N)CN1Cc1ccc(Sc2ccc(C)cc2)o1	33.33
Cc1noc([C@@H]2C[C@@H]3CCN(c4nnc(C)s4)C[C@H]3O2)n1	13.51
CCC[C@@H]1CN(Cc2cc(C#N)n(C)c2C)C[C@H]1NS(C)(=O)=O	25.33
COC(=O)c1cc(OC)c(OC)cc1NCc1c(C)noc1C	1.042
O=C(c1ccccc1F)N1CC[C@@H]2CN(c3ncccn3)CCO[C@@H]2C1	8
CNC(=O)C1CCCN1c1nc(C)c2ccccc2n1 (centres unmarked)	-5.333
CCc1cc(C(=O)N2CCC(O)(Cn3ccc4ccncc43)CC2)no1	6
CC(C)NC(=O)C1CN(C(=O)CCc2ccccc2)CC12CCOCC2 (centres unmarked)	15.38
OC1(CN2CCCCC2)CCN(c2cc(C(F)(F)F)ccn2)C1 (centres unmarked)	8.392
CC(C)CCN1CN=C(NS(=O)(=O)c2ccc(F)cc2)NC1	15.53
OCCNC1CCc2cc3c(cc21)OCCO3 (centres unmarked)	2.222
CCN(Cc1ccc(F)c(F)c1)Cc1nc2c(cnn2C)c(=O)[nH]1	11.5
Cc1cc(CN2CC[C@H]3C(=O)N(c4ccccc4)CCO[C@H]3C2)no1	9.489
Cn1nc(CN2CCCCC2)c2c1CN(C(=O)c1cccc(C#N)c1)C2	2.655
Cc1nc(NC2CC(C)(C)NC(C)(C)C2)c2c(n1)c(C)nn2C	16.85
CN(CCCc1ccccc1)C(=O)c1ccccc1NCC(=O)O	16.87
CCN1CCN(CC(O)c2ccc(Br)cc2)CC1 (centres unmarked)	28.12
CCCN1CCC2(CC1)CN(C(=O)c1cccnc1)c1ccc(F)cc12	17.82
CCN(C(=O)c1nc2c(s1)CCCN2S(C)(=O)=O)C(C)C	17.31
CCc1nn(C)c(Cl)c1CN(CCOC)Cc1cnn(C)c1	7.08
O=C(CCC1CC1)N1CCC(n2cc(C3(O)CCCC3)nn2)CC1	0
Cc1nccn1-c1cccc(C2CCCN(C(=O)c3cc[nH]n3)C2)n1 (centres unmarked)	17.14
c1ccc(Cc2noc(CN3CCOC(Cn4cccn4)C3)n2)cc1 (centres unmarked)	3.571
CC(C)(C)CC(=O)NCCn1nc(C2CCNC2)c2cccnc21 (centres unmarked)	10.31
Cc1cc(NC(=O)Cn2cc(C#N)c(=O)c3cc(Br)ccc32)no1	16.5
c1cnnc(NCC2CN(Cc3cccc4c3OCCO4)CCO2)c1 (centres unmarked)	27.4
COc1cc(C(C)NCc2c[nH]nc2C)ccc1OCCO (centres unmarked)	8.791
c1cncc(COCC2CN(Cc3cccnc3)Cc3ccnn3C2)c1 (centres unmarked)	22.37
CCC(=O)Nc1cccc(OCC(=O)N(C)CCCC2CCCO2)c1 (centres unmarked)	15
COCC(=O)N1CCc2nc(C(=O)N(C)C)sc2CC1	-5.172
CC(C)C(O)CCNC(=O)Nc1cc(F)ccc1-n1cccn1 (centres unmarked)	-5.479
COCCN1CCC(CN(CC2CCCO2)C(=O)C2CCOCC2)CC1 (centres unmarked)	17.98
Cn1ccnc1CN(CCO)Cc1ccc(C(F)(F)F)cc1	17.46
Cn1ccnc1C1CCCN(C(=O)c2ccc3nccnc3c2)C1 (centres unmarked)	7.447
CC(C)c1ccc(CCC(=O)N2CCOCC2c2ncon2)cc1 (centres unmarked)	3.636
O=C(Cc1cccnc1)N1C[C@@H]2CC[C@H](C1)N(Cc1ccccc1)C2=O	4.918
CCc1nc(CN2CCCN(c3ncnc4ccsc34)CC2)no1	29.03
CCCn1cc(C(=O)N2CCOC(c3nc(-c4cccs4)no3)C2)cn1 (centres unmarked)	1.449
COCc1ccccc1NC(=O)c1ccoc1	17.33
CC(C)(C)OC(=O)NC(C)(C(N)=O)c1cccc(Cl)c1 (centres unmarked)	-14.29
Cn1ccnc1COc1ccc(CN2CCN(CCO)CC2)cc1	13.7
Cc1cc(C)nc(N2CC[C@H](Oc3ccccc3F)[C@@H](O)CC2)n1	4.196
O=C(c1cnc(COc2ccccc2)nc1O)N1CCOCC1	16.35
CN(Cc1ccccc1)c1cnn(CC2CCCCO2)c(=O)c1 (centres unmarked)	15.93
COCc1nc(C(=O)N(Cc2ccccc2)CC(C)C(=O)O)cs1 (centres unmarked)	-15.87
CCc1nc(C)cn1C(=O)Nc1ccc(F)cc1	8.247
OC(COCc1ccc(Cl)cc1)CN1CCC(c2ccn[nH]2)CC1 (centres unmarked)	14.61
Cn1cc(CCC(=O)NC(c2ccc(F)cc2)C(F)(F)F)cn1 (centres unmarked)	12.5
CC1CCCCN1CCNC(=O)c1scnc1Cl (centres unmarked)	11.4
COc1ccc(-c2noc(CN3CCCC3Cn3cccn3)n2)cc1 (centres unmarked)	1.724
CC(C)N(C)Cc1noc2c1CN(C(=O)c1cnccn1)CC2	6
CCc1cccc(N2CCC(NC(=O)c3ccc(=O)[nH]n3)CC2)c1	13.51
CC(C)CCc1nc(CNCC2CN(C)CCO2)cs1 (centres unmarked)	9.615
CCn1c(=O)nc(N)c2c(-c3ccc(OC)cc3)csc21	21.05
Cc1noc(C(C)N2CCN(c3ccc(C#N)cn3)CC2)n1 (centres unmarked)	5.479
COCC(=O)N1CCCC(c2noc3nc(C)cc(C(F)(F)F)c23)C1 (centres unmarked)	10
CCOc1ccccc1OC1CCN(C(=O)c2csnn2)CC1	14.55
Cc1noc(C)c1CN1CCOC2(CCCN(c3nncs3)C2)C1 (centres unmarked)	28.57
COc1ncc(NCc2ccc(F)cc2)cc1C(N)=O	-1.036

The first 8 entries again:

- CN(CCc1ccccc1)Cc1cc(C(=O)N2CCCC2(C)C)no1 : 9.524%
- CCOc1ccc(C(=O)NS(=O)(=O)c2cncc(Br)c2)cc1OC : 19.23%
- CCN1CCN(S(=O)(=O)c2ccc(Cc3cc(C)n[nH]c3=O)cc2)CC1 : 10.39%
- CCS(=O)(=O)NCc1nc(C)cc(N2CCCCC2)n1 : 9.333%
- Cc1cc(OC(F)F)c(C(=O)N2CC[C@H](O)C2)s1 : 9.89%
- CCNC(=O)[C@@H]1C[C@H](N)CN1Cc1ccc(Sc2ccc(C)cc2)o1 : 33.33%
- Cc1noc([C@@H]2C[C@@H]3CCN(c4nnc(C)s4)C[C@H]3O2)n1 : 13.51%
- CCC[C@@H]1CN(Cc2cc(C#N)n(C)c2C)C[C@H]1NS(C)(=O)=O : 25.33%